# Part of at least one peptide drawing is inferred or uncertain, most often the ends. Peptide text beside a SMILES is read from it. * marks the point of attachment. X2 = O=C(Cc1ccc2ccccc2c1)N[C@H](Cc1ccccc1)C(=O)N[C@H](Cc1ccccc1)C(=O)N[C@H](CCCCN*)C(=O)NCCNc1ccc([N+](=O)[O-])c2nonc12; X3 = O=C(Cc1ccc2ccccc2c1)N[C@@H](Cc1ccccc1)C(=O)N[C@@H](Cc1ccccc1)C(=O)N[C@@H](CCCCN*)C(=O)N[C@@H](Cc1ccc(O)cc1)C(=O)O; X1 = O=C(Cc1ccc2ccccc2c1)N[C@H](Cc1ccccc1)C(=O)N[C@H](Cc1ccccc1)C(=O)N[C@H](CCCCN*)C(=O)N[C@H](Cc1ccc(O)cc1)C(=O)O
# What was measured:
# U87MG cells [1] = assay: Fluorescent imaging of uptake, U87MG; assay type: cell-based; conditions: 200 μM, 2 h
# [2] = TEM of branched peptide micelles before and after adding ENTK; assay type: physicochemical
# [3] = Critical micelle concentration (CMC) in PBS buffer; assay type: physicochemical
# HS-5 = assay: Fluorescent imaging of intracellular distribution, HS-5; assay type: cell-based; conditions: normal cell line HS-5
# HeLa cells [4] = assay: Fluorescent imaging of uptake and intracellular distribution, HeLa; assay type: cell-based; conditions: 200 μM, 2 h
# HeLa cells [5] = assay: Delivery of cargo (RPE, Dox) by micelles to mitochondria, HeLa; assay type: cell-based; conditions: RPE 1 μg/mL or Dox 2 μM, peptide 200 μM, 2 h
# HeLa cells [6] = assay: Cell viability after GFP-TP53 plasmid transfection, HeLa; assay type: cell-based, human; conditions: GFP-TP53 plasmid (5 μg/mL) mixed with Mito-Flag (200 μM), 3rd day
# Experimental: (§1) FIGS. 24A-G show how perimitochondrial ENS causes mitochondrial transgene expression to induce mitophagy or apoptosis. FIG. 24A is a Western blot analysis of FUNDC1 and LC3B levels in the mitochondria fraction and cytosolic fraction, respectively, of HeLa cells incubated with conditions of interest. VDAC1 serves as mitochondria protein loading control. FUNDC1 plasmid: 5 μg/mL, Mito-Flag: 200 μM, Time: 2 days. FIG. 24B is a panel of fluorescent images showing that Mito-Flag perimitochondrial ENS delivering FUNDC1 gene into mitochondria to induce mitochondrial morphology changes within 2 days. FIG. 24C is a panel of fluorescent images showing that the detection of mitophagy via immunofluorescent staining of autophagy marker, LC3 (2nd day). FIG. 24D is a panel of fluorescent images of HeLa cells incubated with free GFP-TP53 plasmid and the plasmid mixed with Mito-Flag (200 μM, 24 h). FIG. 24E is a graph illustrating cell viability of HeLa, Saos-2, and HS-5 cells incubated with free GFP-TP53 plasmid (5 μg/mL), Mito-Flag (200 μM), and the plasmid (5 μg/mL) mixed with Mito-Flag (200 μM, 3rd day). Data are presented as mean±standard deviation. FIG. 24F is a panel of fluorescent images showing an apoptosis analysis on HeLa and HS-5 cells. […]
# Saos-2 cell = assay: Cell viability after GFP-TP53 plasmid transfection, Saos-2; assay type: cell-based, human; conditions: Saos-2, GFP-TP53 plasmid (5 μg/mL) mixed with Mito-Flag (200 μM), 3rd day
# Experimental: as §1
# U87MG cells [7] = assay: Delivery of cargo (RPE, Dox) by micelles, U87MG; assay type: cell-based; conditions: RPE 1 μg/mL or Dox 2 μM, peptide 200 μM, 2 h
smiles,measurement,setting,value
NCCCC[C@H](NC(=O)[C@H](CC(=O)O)NC(=O)[C@H](CC(=O)O)NC(=O)[C@H](CC(=O)O)NC(=O)[C@H](CC(=O)O)NC(=O)[C@H](CCCCN)NC(=O)[C@H](Cc1ccc(O)cc1)NC(=O)[C@@H](N)CC(=O)O)C(=O)NCC(=O)NCCCC[C@@H](NC(=O)[C@@H](Cc1ccccc1)NC(=O)[C@@H](Cc1ccccc1)NC(=O)Cc1ccc2ccccc2c1)C(=O)NCCNc1ccc([N+](=O)[O-])c2nonc12 [D-1 ? FLAG] (H-DYKDDDDKG-X2),cellular uptake (fluorescent imaging),U87MG cells [1],rapid cellular uptake
same,nanoparticles diameter (TEM),"[2]; 200 μM in PBS buffer, before ENTK",46±11 nm
same,nanofibers diameter (TEM),"[2]; 200 μM, after ENTK (10 U/mL), room temperature, 24 h",18±3 nm
same,critical micelle concentration (CMC),[3],200 µM
same,intracellular distribution,HS-5,accumulate in the lysosomes
same,cellular uptake (fluorescent imaging),HeLa cells [4],rapid cellular uptake
same,intracellular distribution (co-staining with MitoTracker / Lyso-Tracker),HeLa cells [4],specifically localizes in mitochondria
same,intracellular distribution (co-staining with MitoTracker / Lyso-Tracker),HeLa cells [4]; listed as D-1 ? flag,failed to exhibit a mitochondria-specific distribution
same,delivery of cargo molecules to mitochondria,HeLa cells [5]; HeLa (also GFP-Cyt c / Omi-mcherry HeLa),fluorescence localized in the mitochondria
NCCCC[C@H](NC(=O)[C@H](CC(=O)O)NC(=O)[C@H](CC(=O)O)NC(=O)[C@H](CC(=O)O)NC(=O)[C@H](CC(=O)O)NC(=O)[C@H](CCCCN)NC(=O)[C@H](Cc1ccc(O)cc1)NC(=O)[C@@H](N)CC(=O)O)C(=O)NCC(=O)NCCCC[C@@H](NC(=O)[C@@H](Cc1ccccc1)NC(=O)[C@@H](Cc1ccccc1)NC(=O)Cc1ccc2ccccc2c1)C(=O)N[C@H](Cc1ccc(O)cc1)C(=O)O [D-2 ? FLAG] (H-DYKDDDDKG-X1),cell viability,HeLa cells [6],reduces significantly
same,cell viability,Saos-2 cell,significant cell death
NCCCC[C@H](NC(=O)[C@H](CC(=O)O)NC(=O)[C@H](CC(=O)O)NC(=O)[C@H](CC(=O)O)NC(=O)[C@H](CC(=O)O)NC(=O)[C@H](CCCCN)NC(=O)[C@H](Cc1ccc(O)cc1)NC(=O)[C@@H](N)CC(=O)O)C(=O)NCC(=O)NCCCC[C@H](NC(=O)[C@H](Cc1ccccc1)NC(=O)[C@H](Cc1ccccc1)NC(=O)Cc1ccc2ccccc2c1)C(=O)N[C@@H](Cc1ccc(O)cc1)C(=O)O [L-2 ? FLAG] (H-DYKDDDDKG-X3),intracellular delivery of RPE and Dox (cell fluorescence),U87MG cells [7],strong fluorescence
same,intracellular delivery of RPE and Dox (cell fluorescence),HeLa cells [5]; HeLa,strong fluorescence
